Assay results reported in paper PMC7862700.
The entries are a selection whose mix differs from that of the whole data set. At the low end of the ranking the order means little.

What was measured:
Experiment in all cases: DAPPL (digital affinity profiling via proximity ligation, sequencing)
Conditions in all cases: 10 mM Tris-HCl pH 7.5, 50 mM NaCl, 1 mM DTT, 4% glycerol, room temperature, 30 min; GST-TFs on glutathione beads, 16-mer random dsDNA library, 0.1% …; high values mean tight binding; double strand, one strand shown; scale: fold enrichment (6-mer frequency, TF over GST control)
ELK1 = target: T1, ELK1 (UniProt P19419)
T1 sequence: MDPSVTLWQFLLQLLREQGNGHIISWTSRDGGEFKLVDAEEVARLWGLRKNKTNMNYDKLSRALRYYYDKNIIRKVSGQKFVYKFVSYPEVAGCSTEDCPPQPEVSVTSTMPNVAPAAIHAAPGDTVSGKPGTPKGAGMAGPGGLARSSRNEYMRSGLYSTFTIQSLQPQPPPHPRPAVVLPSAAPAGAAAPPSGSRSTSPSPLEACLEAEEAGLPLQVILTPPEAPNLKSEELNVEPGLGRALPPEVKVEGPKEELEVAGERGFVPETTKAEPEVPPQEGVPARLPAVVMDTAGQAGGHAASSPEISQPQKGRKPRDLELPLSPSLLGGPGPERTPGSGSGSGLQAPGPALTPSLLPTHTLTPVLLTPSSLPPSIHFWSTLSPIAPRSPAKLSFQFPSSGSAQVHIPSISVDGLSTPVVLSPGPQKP

ELK3 = target: T2, ELK3 (UniProt P41970)
T2 sequence: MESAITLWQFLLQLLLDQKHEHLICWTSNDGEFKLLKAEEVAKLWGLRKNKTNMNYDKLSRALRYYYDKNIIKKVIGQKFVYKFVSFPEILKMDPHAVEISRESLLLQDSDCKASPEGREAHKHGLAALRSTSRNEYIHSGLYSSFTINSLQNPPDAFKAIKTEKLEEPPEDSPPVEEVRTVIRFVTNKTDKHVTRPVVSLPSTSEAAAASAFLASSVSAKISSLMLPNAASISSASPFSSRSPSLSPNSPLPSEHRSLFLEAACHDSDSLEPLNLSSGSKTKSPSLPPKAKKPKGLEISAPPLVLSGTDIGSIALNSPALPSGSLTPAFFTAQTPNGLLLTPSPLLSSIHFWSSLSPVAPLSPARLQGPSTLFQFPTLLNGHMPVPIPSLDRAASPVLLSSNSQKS

SPIC = target: T3, SPIC (UniProt Q8N5J4)
T3 sequence: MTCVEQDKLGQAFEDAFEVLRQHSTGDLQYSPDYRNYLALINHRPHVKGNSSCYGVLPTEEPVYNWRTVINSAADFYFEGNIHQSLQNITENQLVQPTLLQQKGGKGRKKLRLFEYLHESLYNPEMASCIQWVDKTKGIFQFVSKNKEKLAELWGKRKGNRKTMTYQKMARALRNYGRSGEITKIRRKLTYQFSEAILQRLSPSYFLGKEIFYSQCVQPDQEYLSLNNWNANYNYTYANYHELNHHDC

ETS2 = target: T4, ETS2 (UniProt P15036)
T4 sequence: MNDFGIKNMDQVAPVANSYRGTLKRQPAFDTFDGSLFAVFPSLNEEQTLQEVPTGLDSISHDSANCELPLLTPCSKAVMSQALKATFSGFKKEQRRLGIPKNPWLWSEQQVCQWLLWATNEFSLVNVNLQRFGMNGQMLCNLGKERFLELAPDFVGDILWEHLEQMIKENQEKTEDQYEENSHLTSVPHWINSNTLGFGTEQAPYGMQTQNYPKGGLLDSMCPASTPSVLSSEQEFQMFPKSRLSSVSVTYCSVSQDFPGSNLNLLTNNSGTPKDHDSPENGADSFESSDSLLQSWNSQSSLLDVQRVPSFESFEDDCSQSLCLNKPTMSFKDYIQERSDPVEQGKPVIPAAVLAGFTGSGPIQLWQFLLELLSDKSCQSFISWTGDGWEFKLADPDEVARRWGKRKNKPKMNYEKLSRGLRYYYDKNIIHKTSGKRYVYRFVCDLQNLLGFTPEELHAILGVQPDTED

ETV3 = target: T5, ETV3 (UniProt P41162-2)
T5 sequence: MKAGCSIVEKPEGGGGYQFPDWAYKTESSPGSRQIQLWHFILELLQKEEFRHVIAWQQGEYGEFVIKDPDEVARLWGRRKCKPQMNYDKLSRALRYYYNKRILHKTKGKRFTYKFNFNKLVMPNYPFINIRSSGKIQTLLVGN

Sequence | binding signal (ELK1) | binding signal (ELK3) | binding signal (SPIC) | binding signal (ETS2) | binding signal (ETV3)
AGCTTG | 0.88 | 0.925 | 0.986 | 0.886 | 0.976
GCGAAC | 0.942 | 0.861 | 0.984 | 0.931 | 0.976
GTTTAG | 0.829 | 0.875 | 0.912 | 0.821 | 0.87
GTGCCC | 0.975 | 0.917 | 0.872 | 0.926 | 0.94
GTTGGT | 0.969 | 0.927 | 0.904 | 0.779 | 0.994
TCGAAA | 0.959 | 0.939 | 1.06 | 0.939 | 0.883
GCGAAG | 0.91 | 0.932 | 0.966 | 0.863 | 0.857
TTGGGA | 0.975 | 0.894 | 1 | 0.868 | 0.93
AGCGAA | 0.898 | 0.871 | 0.859 | 0.93 | 0.986
GTCTGG | 0.907 | 0.892 | 0.881 | 0.779 | 0.846
TCCAGT | 0.616 | 0.726 | 0.693 | 0.64 | 0.682
GGATGG | 0.996 | 0.987 | 0.861 | 1.03 | 0.978
GGCATA | 0.988 | 0.847 | 0.867 | 0.95 | 0.933
GCTAGG | 0.915 | 0.977 | 1.03 | 0.954 | 1.03
AGGCTT | 0.97 | 1.05 | 0.973 | 1.04 | 0.972
GTCAAA | 0.933 | 0.908 | 0.889 | 0.953 | 0.929
GCATAC | 0.977 | 1.05 | 0.974 | 0.954 | 0.976
CTGTGT | 0.8 | 0.894 | 0.838 | 0.916 | 0.869
GGTTGT | 0.9 | 0.86 | 0.896 | 0.995 | 0.853
TGTGAT | 0.974 | 0.982 | 0.973 | 1.09 | 0.956

Some of the entries above, set out differently:
Sequence,binding signal (ELK1),binding signal (ELK3),binding signal (SPIC),binding signal (ETS2),binding signal (ETV3)
GTTTAG,0.829,0.875,0.912,0.821,0.87
AGCGAA,0.898,0.871,0.859,0.93,0.986
GCATAC,0.977,1.05,0.974,0.954,0.976

(list continues)

Sequence | binding signal (ELK1) | binding signal (ELK3) | binding signal (SPIC) | binding signal (ETS2) | binding signal (ETV3)
ACAAGT | 0.892 | 0.914 | 0.885 | 0.939 | 0.948
GAATCA | 0.907 | 0.87 | 0.849 | 0.918 | 0.848
CGAGAT | 0.918 | 0.838 | 0.861 | 0.863 | 0.859
GTTCAG | 0.936 | 0.833 | 0.91 | 0.89 | 0.922
CATTGG | 0.935 | 0.958 | 0.95 | 0.962 | 0.883
ACTGGG | 0.766 | 0.835 | 0.977 | 0.836 | 0.826
GGATAA | 0.835 | 0.814 | 0.74 | 0.835 | 0.828
AGAGAT | 0.905 | 0.924 | 0.875 | 0.845 | 0.883
AGTCTT | 0.903 | 0.889 | 0.839 | 0.922 | 0.896
CAGATA | 0.925 | 0.824 | 0.925 | 0.947 | 0.922
CGAGTA | 0.847 | 0.858 | 0.877 | 0.803 | 0.817
CCACAG | 0.986 | 0.903 | 0.941 | 0.934 | 0.951
GATTAG | 0.911 | 0.823 | 0.853 | 0.871 | 0.833
ACCGGT | 0.924 | 0.841 | 0.884 | 0.945 | 0.886
ACCAAA | 1.05 | 0.969 | 0.875 | 0.979 | 1.02
GCCTAG | 0.962 | 0.93 | 0.989 | 1 | 0.987
TCGAGA | 0.643 | 0.623 | 0.692 | 0.587 | 0.586
ACAGAA | 0.94 | 0.868 | 0.987 | 0.987 | 0.899
GAGAAT | 0.716 | 0.792 | 0.734 | 0.758 | 0.728
TCCAGA | 0.825 | 0.843 | 0.778 | 0.882 | 0.889

Sequence | binding signal (ELK1) | binding signal (ELK3) | binding signal (SPIC) | binding signal (ETS2) | binding signal (ETV3)
CCATAG | 0.913 | 0.948 | 0.941 | 0.84 | 0.915
CGTCGA | 0.922 | 0.955 | 0.799 | 0.96 | 0.82
CTGAGG | 0.841 | 0.771 | 0.781 | 0.815 | 0.854
GTCATT | 0.951 | 0.851 | 0.927 | 0.94 | 0.916
CCCAGA | 0.787 | 0.843 | 0.894 | 0.93 | 0.889
AGGTTC | 0.851 | 0.875 | 0.822 | 0.835 | 0.865
CGAGAA | 0.924 | 0.977 | 0.909 | 0.902 | 0.787
TGGGAC | 0.954 | 0.933 | 1 | 0.906 | 0.945
GGATTC | 0.836 | 0.997 | 0.894 | 0.97 | 0.997
GTGGAT | 0.939 | 1.04 | 0.997 | 0.922 | 0.93
AGTGTA | 0.909 | 0.943 | 1.19 | 0.949 | 0.977
CGTACG | 0.976 | 0.981 | 0.983 | 0.984 | 0.988
GAAGGT | 0.832 | 0.796 | 0.722 | 0.863 | 0.868
CAGAAG | 0.68 | 0.783 | 0.719 | 0.799 | 0.79
AGCATA | 0.914 | 0.977 | 0.863 | 0.953 | 0.945
GTTCGT | 0.963 | 0.977 | 1.12 | 0.957 | 0.905
CATAAG | 0.965 | 0.949 | 0.935 | 0.961 | 0.976
GTACCA | 1.04 | 0.907 | 0.943 | 0.994 | 0.93
GAAGAT | 0.961 | 0.855 | 0.888 | 0.977 | 0.921
CATAGC | 0.971 | 0.964 | 0.769 | 0.963 | 0.972
